# The list shows a part of the results.
# Sequences of proteins named here, by UniProt entry; tags and fusion partners are left off. A change or cut given only in a name is not applied to a line headed by its entry.
# UniProt P41567, whole entry: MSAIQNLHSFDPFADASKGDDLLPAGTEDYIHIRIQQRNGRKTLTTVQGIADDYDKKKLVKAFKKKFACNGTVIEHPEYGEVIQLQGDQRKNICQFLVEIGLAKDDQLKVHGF
# UniProt Q96EB1: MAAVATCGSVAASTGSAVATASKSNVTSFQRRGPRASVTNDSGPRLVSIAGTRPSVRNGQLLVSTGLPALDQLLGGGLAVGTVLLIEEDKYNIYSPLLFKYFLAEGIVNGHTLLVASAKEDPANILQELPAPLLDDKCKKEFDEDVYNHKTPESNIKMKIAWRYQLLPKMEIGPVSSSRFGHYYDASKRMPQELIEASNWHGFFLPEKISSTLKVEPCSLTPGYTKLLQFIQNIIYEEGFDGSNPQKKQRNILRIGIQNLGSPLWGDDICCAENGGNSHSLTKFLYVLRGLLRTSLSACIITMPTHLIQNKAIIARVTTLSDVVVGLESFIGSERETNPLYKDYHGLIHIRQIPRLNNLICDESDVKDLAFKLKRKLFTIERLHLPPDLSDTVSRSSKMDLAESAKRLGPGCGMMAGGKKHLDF
# UniProt O60869: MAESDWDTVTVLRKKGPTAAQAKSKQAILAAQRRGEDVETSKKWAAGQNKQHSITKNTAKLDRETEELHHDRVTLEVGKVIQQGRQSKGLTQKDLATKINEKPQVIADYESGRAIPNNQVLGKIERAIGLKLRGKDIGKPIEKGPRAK
# UniProt P17813: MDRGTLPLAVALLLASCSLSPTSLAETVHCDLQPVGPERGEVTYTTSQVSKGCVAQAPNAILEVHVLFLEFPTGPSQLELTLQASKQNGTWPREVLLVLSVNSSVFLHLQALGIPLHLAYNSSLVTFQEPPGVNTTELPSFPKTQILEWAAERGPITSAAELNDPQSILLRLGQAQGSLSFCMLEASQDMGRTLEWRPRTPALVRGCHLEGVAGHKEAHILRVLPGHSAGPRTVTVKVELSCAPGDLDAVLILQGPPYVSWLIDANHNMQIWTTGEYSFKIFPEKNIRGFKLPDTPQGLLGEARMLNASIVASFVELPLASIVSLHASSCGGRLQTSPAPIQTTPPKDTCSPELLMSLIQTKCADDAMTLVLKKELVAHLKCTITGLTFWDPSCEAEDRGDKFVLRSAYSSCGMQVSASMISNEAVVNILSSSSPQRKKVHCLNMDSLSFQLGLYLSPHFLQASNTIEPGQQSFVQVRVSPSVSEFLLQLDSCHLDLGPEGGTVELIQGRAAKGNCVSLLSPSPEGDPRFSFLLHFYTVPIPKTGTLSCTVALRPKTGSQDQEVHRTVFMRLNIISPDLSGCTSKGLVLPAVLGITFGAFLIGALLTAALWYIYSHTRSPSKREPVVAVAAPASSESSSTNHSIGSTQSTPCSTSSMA
# UniProt O43324: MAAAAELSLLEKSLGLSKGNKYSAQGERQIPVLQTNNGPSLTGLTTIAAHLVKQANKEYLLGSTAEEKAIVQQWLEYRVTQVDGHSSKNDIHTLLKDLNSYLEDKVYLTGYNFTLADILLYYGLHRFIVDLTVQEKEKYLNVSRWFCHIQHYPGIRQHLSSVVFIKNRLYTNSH
# UniProt P51452: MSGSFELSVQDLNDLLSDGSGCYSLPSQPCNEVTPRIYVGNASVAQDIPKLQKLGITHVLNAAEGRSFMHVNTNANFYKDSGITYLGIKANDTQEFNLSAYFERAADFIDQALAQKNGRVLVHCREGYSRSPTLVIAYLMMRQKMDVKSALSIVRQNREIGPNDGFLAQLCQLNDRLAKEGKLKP
# UniProt Q15029: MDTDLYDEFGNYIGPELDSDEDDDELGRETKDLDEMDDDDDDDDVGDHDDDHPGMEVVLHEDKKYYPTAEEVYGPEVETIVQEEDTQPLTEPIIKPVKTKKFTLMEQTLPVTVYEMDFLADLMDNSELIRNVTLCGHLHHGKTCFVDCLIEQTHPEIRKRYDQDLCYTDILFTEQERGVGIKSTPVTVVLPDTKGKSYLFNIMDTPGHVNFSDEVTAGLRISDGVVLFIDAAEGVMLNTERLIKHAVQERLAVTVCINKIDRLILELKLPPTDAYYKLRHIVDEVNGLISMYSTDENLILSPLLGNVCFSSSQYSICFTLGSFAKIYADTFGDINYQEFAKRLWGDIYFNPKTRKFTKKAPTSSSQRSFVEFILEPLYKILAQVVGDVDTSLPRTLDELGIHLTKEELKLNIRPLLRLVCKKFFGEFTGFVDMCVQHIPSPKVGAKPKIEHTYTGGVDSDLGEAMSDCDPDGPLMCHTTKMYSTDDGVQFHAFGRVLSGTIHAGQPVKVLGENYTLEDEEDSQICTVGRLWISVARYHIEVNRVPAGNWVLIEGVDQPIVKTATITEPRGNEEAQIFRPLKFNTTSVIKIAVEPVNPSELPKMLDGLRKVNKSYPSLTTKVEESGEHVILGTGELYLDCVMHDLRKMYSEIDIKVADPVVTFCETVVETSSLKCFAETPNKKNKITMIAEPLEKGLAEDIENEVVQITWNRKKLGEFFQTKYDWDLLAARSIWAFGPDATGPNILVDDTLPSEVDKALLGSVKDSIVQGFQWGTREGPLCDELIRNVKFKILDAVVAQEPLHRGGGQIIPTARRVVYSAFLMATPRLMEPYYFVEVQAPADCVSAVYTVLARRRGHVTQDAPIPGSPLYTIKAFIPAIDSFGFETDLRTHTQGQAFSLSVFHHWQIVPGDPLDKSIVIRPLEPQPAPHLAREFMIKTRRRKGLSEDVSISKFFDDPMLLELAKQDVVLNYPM
# UniProt Q9NP97, whole entry: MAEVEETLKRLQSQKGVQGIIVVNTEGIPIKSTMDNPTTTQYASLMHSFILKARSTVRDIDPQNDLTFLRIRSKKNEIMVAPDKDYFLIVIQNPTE
# UniProt Q9Y4E1, whole entry: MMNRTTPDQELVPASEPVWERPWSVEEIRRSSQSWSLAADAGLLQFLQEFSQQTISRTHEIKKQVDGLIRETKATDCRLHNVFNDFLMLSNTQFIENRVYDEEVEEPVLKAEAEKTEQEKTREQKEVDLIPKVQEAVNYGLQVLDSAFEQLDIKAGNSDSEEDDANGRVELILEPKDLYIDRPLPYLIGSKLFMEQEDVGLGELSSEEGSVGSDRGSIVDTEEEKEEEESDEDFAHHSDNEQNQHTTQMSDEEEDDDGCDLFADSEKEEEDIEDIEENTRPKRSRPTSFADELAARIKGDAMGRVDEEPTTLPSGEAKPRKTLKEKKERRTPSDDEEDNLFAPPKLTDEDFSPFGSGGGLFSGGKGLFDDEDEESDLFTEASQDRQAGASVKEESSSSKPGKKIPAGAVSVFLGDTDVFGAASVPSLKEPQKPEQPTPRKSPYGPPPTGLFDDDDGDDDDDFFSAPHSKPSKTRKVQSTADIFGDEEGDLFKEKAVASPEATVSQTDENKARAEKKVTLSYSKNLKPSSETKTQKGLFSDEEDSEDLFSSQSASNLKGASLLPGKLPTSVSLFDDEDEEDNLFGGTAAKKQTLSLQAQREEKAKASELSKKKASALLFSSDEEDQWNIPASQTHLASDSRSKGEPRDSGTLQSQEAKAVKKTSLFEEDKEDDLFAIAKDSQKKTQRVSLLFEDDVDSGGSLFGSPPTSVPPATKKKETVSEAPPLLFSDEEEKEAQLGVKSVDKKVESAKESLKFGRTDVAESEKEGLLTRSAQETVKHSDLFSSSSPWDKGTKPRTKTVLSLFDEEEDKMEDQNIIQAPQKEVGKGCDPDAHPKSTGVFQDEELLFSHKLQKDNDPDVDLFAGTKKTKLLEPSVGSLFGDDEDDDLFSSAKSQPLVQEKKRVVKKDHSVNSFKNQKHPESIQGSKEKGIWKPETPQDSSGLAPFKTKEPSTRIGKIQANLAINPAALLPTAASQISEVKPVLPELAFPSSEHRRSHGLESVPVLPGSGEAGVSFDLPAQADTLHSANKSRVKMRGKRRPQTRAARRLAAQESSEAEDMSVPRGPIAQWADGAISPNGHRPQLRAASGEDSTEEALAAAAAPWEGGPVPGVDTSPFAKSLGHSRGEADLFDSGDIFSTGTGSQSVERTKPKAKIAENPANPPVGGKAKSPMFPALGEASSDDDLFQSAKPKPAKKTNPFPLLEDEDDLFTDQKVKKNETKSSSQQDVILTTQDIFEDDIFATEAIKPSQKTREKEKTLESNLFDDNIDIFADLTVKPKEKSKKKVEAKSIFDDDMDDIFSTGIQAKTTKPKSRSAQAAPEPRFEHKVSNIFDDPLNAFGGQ
# UniProt Q15075: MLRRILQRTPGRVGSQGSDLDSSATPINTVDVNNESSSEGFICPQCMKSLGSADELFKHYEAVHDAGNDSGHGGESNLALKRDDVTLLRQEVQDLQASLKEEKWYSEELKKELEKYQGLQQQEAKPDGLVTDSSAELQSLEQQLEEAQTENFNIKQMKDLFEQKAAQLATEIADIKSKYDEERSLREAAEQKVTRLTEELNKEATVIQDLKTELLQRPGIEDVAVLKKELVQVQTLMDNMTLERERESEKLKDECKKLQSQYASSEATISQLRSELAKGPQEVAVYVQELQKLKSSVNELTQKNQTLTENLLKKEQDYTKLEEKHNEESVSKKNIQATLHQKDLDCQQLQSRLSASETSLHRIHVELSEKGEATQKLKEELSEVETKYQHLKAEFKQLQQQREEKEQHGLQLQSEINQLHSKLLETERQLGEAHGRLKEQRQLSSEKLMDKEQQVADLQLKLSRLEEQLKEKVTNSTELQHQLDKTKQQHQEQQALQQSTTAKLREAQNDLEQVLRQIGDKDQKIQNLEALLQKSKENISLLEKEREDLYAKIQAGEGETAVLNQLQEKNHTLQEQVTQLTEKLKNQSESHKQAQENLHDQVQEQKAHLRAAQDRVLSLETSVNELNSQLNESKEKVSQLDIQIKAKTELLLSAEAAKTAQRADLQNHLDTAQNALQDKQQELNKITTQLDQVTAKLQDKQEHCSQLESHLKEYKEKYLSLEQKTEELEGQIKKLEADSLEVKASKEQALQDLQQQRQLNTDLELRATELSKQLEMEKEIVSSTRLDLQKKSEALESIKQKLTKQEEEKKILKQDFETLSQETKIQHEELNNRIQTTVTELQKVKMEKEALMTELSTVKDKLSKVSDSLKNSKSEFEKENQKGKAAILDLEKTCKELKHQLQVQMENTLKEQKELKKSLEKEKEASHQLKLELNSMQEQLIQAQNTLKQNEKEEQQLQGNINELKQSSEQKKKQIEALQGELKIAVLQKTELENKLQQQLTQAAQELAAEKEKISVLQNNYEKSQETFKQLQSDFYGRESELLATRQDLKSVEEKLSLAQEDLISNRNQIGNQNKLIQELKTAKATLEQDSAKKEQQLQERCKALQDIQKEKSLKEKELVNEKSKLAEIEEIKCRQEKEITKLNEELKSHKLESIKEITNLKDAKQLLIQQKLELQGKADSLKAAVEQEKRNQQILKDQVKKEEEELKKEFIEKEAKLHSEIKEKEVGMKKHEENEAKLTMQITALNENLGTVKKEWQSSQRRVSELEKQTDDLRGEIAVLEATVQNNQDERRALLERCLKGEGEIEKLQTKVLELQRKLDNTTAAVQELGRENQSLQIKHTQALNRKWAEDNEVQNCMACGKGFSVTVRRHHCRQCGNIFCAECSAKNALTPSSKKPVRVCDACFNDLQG
# UniProt P78344: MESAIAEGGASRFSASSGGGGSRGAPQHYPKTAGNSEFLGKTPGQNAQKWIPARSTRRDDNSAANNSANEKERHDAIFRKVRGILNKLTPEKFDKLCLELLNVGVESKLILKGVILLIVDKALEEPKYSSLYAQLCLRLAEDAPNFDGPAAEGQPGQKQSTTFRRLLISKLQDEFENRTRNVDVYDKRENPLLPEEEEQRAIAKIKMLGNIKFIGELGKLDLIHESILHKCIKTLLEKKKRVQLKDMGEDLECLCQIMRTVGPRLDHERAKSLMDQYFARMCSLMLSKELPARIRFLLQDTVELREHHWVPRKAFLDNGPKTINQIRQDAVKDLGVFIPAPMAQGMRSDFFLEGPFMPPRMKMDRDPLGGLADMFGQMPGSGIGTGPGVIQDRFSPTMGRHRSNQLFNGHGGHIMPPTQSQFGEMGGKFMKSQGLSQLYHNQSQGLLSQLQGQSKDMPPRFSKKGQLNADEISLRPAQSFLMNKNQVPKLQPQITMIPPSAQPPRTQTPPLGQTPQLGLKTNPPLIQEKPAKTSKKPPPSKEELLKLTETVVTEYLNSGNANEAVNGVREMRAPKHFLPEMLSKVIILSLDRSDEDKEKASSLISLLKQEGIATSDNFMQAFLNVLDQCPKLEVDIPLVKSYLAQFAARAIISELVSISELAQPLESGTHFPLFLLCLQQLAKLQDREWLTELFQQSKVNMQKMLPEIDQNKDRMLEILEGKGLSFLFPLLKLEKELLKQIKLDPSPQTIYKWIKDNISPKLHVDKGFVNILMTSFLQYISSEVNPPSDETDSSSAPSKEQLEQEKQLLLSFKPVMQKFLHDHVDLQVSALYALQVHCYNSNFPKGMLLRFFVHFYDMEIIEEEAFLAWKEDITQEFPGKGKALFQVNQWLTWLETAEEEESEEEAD
# UniProt P84090, whole entry, looked up: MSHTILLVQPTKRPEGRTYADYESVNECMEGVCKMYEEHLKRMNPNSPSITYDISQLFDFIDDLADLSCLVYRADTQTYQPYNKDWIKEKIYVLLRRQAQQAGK
# Compound: COc1ccc(Cn2ccc3cc(C)c(C(=O)NO)cc32)cc1
# Assay: dose-dependent thermal stabilisation call (2D-TPP, DLPTP, 10% FDR) (binary (1 = stabilised)); higher = stabilised by the compound
# Settings: system: HL-60 intact cells; concentration range 0.04-10 µM
# Method: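 2D thermal proteome profiling in intact HL-60 cells treated with BRD-3811 (0, 0.04, 0.29, 2, 10 uM) for 90 min at 37 C, then heated 3 min at one of 12 temperatures (42-63.9 C). Soluble protein was quantified by TMT10 MS. The value is the DLPTP call of the paper: dose-dependent thermal stabilisation over all temperatures at 10% FDR (F-test of a dose-response against a flat model); one experiment, one call per tested protein.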
row,Target,dose-dependent thermal stabilisation call
1,EML2 (UniProt O95834),inactive: 0
2,EARS2 (UniProt Q5JPH6),inactive: 0
3,FAM21B (UniProt Q641Q2),inactive: 0
4,EIF4EBP1 (UniProt Q13541),inactive: 0
5,EIF1 (UniProt P41567),inactive: 0
6,EFHD2 (UniProt Q96C19),inactive: 0
7,FAM127A,inactive: 0
8,EIF2B1 (UniProt Q14232),inactive: 0
9,ERCC2 (UniProt P18074),inactive: 0
10,EXOSC8 (UniProt Q96B26),inactive: 0
11,EEFSEC (UniProt P57772),inactive: 0
12,ETFDH (UniProt Q16134),inactive: 0
13,DSG2 (UniProt Q14126),inactive: 0
14,ECHDC1 (UniProt Q9NTX5),inactive: 0
15,EIF2AK4 (UniProt Q9P2K8),inactive: 0
16,EIF3M (UniProt Q7L2H7),inactive: 0
17,ETF1 (UniProt P62495),inactive: 0
18,ENOSF1 (UniProt Q7L5Y1),inactive: 0
19,ECD (UniProt O95905),inactive: 0
20,EIF4G3 (UniProt O43432),inactive: 0
21,ELP4 (UniProt Q96EB1),inactive: 0
22,EIF3D (UniProt O15371),inactive: 0
23,ELMO2 (UniProt Q96JJ3),inactive: 0
24,ENO3 (UniProt P13929),inactive: 0
25,EML4 (UniProt Q9HC35),inactive: 0

row,Target,dose-dependent thermal stabilisation call
1,DTD1 (UniProt Q8TEA8),inactive: 0
2,FAM164A (UniProt Q96GY0),inactive: 0
3,ECSIT (UniProt Q9BQ95),inactive: 0
4,ELAC1 (UniProt Q9H777),inactive: 0
5,EIF2B4 (UniProt Q9UI10),inactive: 0
6,FAM18B2 (UniProt Q96ET8),inactive: 0
7,FAM45A (UniProt Q8TCE6),inactive: 0
8,EIF5A (UniProt P63241),inactive: 0
9,DYNC1I2 (UniProt Q13409),inactive: 0
10,DVL2 (UniProt O14641),inactive: 0
11,EWSR1 (UniProt Q01844),inactive: 0
12,ERO1L (UniProt Q96HE7),inactive: 0
13,FAM122A (UniProt Q96E09),inactive: 0
14,EHBP1L1 (UniProt Q8N3D4),inactive: 0
15,FAM173A (UniProt Q9BQD7),inactive: 0
16,DSTN (UniProt P60981),inactive: 0
17,EMILIN2 (UniProt Q9BXX0),inactive: 0
18,ECHS1 (UniProt P30084),inactive: 0
19,FAM134B (UniProt Q9H6L5),inactive: 0
20,DTNBP1 (UniProt Q96EV8),inactive: 0
21,EDF1 (UniProt O60869),inactive: 0
22,ERI1 (UniProt Q8IV48),inactive: 0
23,ENG (UniProt P17813),inactive: 0
24,EEF1G (UniProt P26641),inactive: 0
25,ERAP1 (UniProt Q9NZ08),inactive: 0

row,Target,dose-dependent thermal stabilisation call
1,ERCC6,inactive: 0
2,EIF4A2 (UniProt Q14240),inactive: 0
3,ETV6 (UniProt P41212),inactive: 0
4,EEF1E1 (UniProt O43324),inactive: 0
5,DUSP3 (UniProt P51452),inactive: 0
6,EFCAB4B (UniProt Q9BSW2),inactive: 0
7,EFTUD2 (UniProt Q15029),active: 1
8,EXO1 (UniProt Q9UQ84),inactive: 0
9,FAM175B (UniProt Q15018),inactive: 0
10,EDEM1 (UniProt Q92611),inactive: 0
11,ESF1 (UniProt Q9H501),inactive: 0
12,DYNLRB1 (UniProt Q9NP97),inactive: 0
13,FAM119A (UniProt Q8WXB1),inactive: 0
14,ECE1 (UniProt P42892),inactive: 0
15,DSCR3 (UniProt O14972),inactive: 0
16,FAM21C (UniProt Q9Y4E1),inactive: 0
17,FAM134C (UniProt Q86VR2),inactive: 0
18,ENO1 (UniProt P06733),inactive: 0
19,DST (UniProt Q03001),inactive: 0
20,ERCC4 (UniProt Q92889),inactive: 0
21,EEA1 (UniProt Q15075),inactive: 0
22,EIF4G2 (UniProt P78344),inactive: 0
23,ERH (UniProt P84090),inactive: 0
24,EXOSC5 (UniProt Q9NQT4),inactive: 0

# Some of the entries so far, with tabs.
row	Target	dose-dependent thermal stabilisation call
1	ERCC6	inactive: 0
2	EIF4A2 (UniProt Q14240)	inactive: 0
3	ETV6 (UniProt P41212)	inactive: 0
4	EEF1E1 (UniProt O43324)	inactive: 0
5	DUSP3 (UniProt P51452)	inactive: 0
6	EFCAB4B (UniProt Q9BSW2)	inactive: 0
7	EFTUD2 (UniProt Q15029)	active: 1
8	EXO1 (UniProt Q9UQ84)	inactive: 0
9	FAM175B (UniProt Q15018)	inactive: 0
10	EDEM1 (UniProt Q92611)	inactive: 0
11	ESF1 (UniProt Q9H501)	inactive: 0
12	DYNLRB1 (UniProt Q9NP97)	inactive: 0
13	FAM119A (UniProt Q8WXB1)	inactive: 0
14	ECE1 (UniProt P42892)	inactive: 0
15	DSCR3 (UniProt O14972)	inactive: 0
16	FAM21C (UniProt Q9Y4E1)	inactive: 0
17	FAM134C (UniProt Q86VR2)	inactive: 0
18	ENO1 (UniProt P06733)	inactive: 0
